The values below come from publication PMC8520055 (Asian Journal of Pharmaceutical Sciences, 2021).

Data set [1] can be described thus: Pharmacokinetics of ATV. It counts as in vivo, rats. To be noted: ATV 10 mg/kg p.o.; for AUC(0-inf) / CL/F / Cmax / MRT last / MRT inf: rat, plasma, po, 10 mg/kg; for AUC(0-inf): AUC0-∞; for MRT last: MRT0-t; for MRT inf: MRT0-∞.
Data set [2] in a line: Pharmacokinetics of ATV. Format: in vivo, rats. To be noted: ATV 10 mg/kg p.o.; for CL/F / Cmax / MRT last / MRT inf: rat, plasma, po, 10 mg/kg; for MRT last: MRT0-t; for MRT inf: MRT0-∞.
A short description of data set [3]: Hepatic disposition of ATV and GCDCA-S in rats with ANIT-induced liver injury. Format: in vivo. To be noted: 10 mg/kg ANIT-treated rats; ATV 10 mg/kg p.o., 30 min; P > 0.05.

As to `CC(C)c1c(C(=O)Nc2ccccc2)c(-c2ccccc2)c(-c2ccc(F)cc2)n1CC[C@@H](O)C[C@@H](O)CC(=O)O` [atorvastatin], in “Pharmacokinetics of ATV [1]” (Control (vehicle i.v.)), the V/F turned out to be 19.03 ± 4.76 L/kg; the AUC(0-inf) (commonly the area under the concentration-time curve extrapolated to infinity) is 668 ng·h/mL; the CL/F – broadly, the apparent clearance, not corrected for the fraction that reaches the circulation – came to 280 ± 90 mL/min/kg; the Cmax (usually the maximum level reached in the sampled fluid or tissue) turned out to be 463 ± 120 ng/mL. Moreover, in the data set “Pharmacokinetics of ATV [1]” (Control (vehicle i.v.)), the MRT last (commonly a mean duration of stay, worked out from the concentration-time curve) was 1.09 h and the MRT inf (commonly a mean duration of stay, worked out from the concentration-time curve) was 1.13 h. In the data set “Pharmacokinetics of ATV [1]” (with KTZ 20 mg/kg i.v.), the V/F was 14.11 ± 6.56 L/kg, the AUC(0-inf) is 1700 ng·h/mL, the CL/F stood at 110 ± 30 mL/min/kg and the Cmax amounted to 706 ± 159 ng/mL. In “Pharmacokinetics of ATV [1]” (with KTZ 20 mg/kg i.v.), this compound had an MRT last of 1.82 h and an MRT inf of 2.3 h. For the same compound, in the data set “Pharmacokinetics of ATV [2]” (Control (vehicle i.v.)), the V/F was found to be 46.22 ± 8.62 L/kg, the CL/F was 360 ± 70 mL/min/kg, the Cmax turned out to be 315 ± 54.4 ng/mL and the MRT last is 1.46 h. The compound further showed an MRT inf in the data set “Pharmacokinetics of ATV [2]” (Control (vehicle i.v.)) of 1.81 h. In the data set “Pharmacokinetics of ATV [2]” (with RIF 30 mg/kg i.v.), the V/F was 11.64 ± 4.81 ^⁎⁎ l/kg, the CL/F came to 70 ± 10 mL/min/kg, the concentration peaked (Cmax) at 1530 ± 372 ng/mL and the MRT last is 1.53 h. The compound also had an MRT inf in the data set “Pharmacokinetics of ATV [2]” (with RIF 30 mg/kg i.v.) of 2.14 h. The “Plasma levels vs control” value in data set [3] is reported as “no significant change”.
